Data as given in PubChem BioAssay AID1508597 (Cure First, 2020)
This is a random part of the about 2,100 reagents, in one setting of the screen. 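Calls flag viability under 80% in either arm, not effects specific to rucaparib; the reference for percent is not stated.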 Reagents against one gene are numbered here. A reagent listed more than once was tested more than once; the source does not tell the runs apart. Not stated in the record: the 100% reference.

Screen: 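Survival screen with siRNA in ovarian cancer cells derived from patients, with or without rucaparib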 (primary screen)
Cells: human ovarian carcinoma lines grown from tumours: OCI-P5x (papillary serous) and OCI-C5x (clear cell)
Reagent: siRNA pool against human genes, 1.25 pmol siRNA per well
Time to read-out: 72 h or 96 h, depending on the cell culture
Conditions: rucaparib 20 µM (about IC30) or vehicle, present until read-out
Rucaparib or vehicle: Rucaparib
Cell line: OCI-P5x (serous)
Detection: 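Luminescent ATP-based viability assay read 72 or 96 h after transfection, depending on culture, given as normalised percent viability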
Direction: viability, normalised: higher = more viable cells remaining
Rule for the call: 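Active when normalised viability falls below 80 percent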
Meaning of the calls: active = viability under 80%; inactive = viability 80% or more

no.	Gene	reagent no.	technical replicate	viability, normalised (%)	Call
1	PCSK9	1	1	56.9	active
2	PCSK9	1	2	59.4	active
3	PCSK9	1	3	55.6	active
4	CDYL2	1	1	99.1	inactive
5	CDYL2	1	2	95.4	inactive
6	CDYL2	1	3	77.2	active
7	MTREX	1	1	48.2	active
8	MTREX	1	2	57.3	active
9	MTREX	1	3	52.4	active
10	DDX42	1	1	57.8	active
11	DDX42	1	2	68.5	active
12	DDX42	1	3	63.9	active
13	ADCK1	1	1	116	inactive
14	ADCK1	1	2	101	inactive
15	ADCK1	1	3	89.1	inactive
16	GCH1	1	1	72	active
17	GCH1	1	2	74.5	active
18	GCH1	1	3	60.9	active
19	ALPK3	1	1	78.1	active
20	ALPK3	1	2	77	active
21	ALPK3	1	3	52.9	active
22	DHX38	1	1	72.3	active
23	DHX38	1	2	80.4	inactive
24	DHX38	1	3	74.2	active
25	GLRA2	1	1	41.8	active
26	GLRA2	1	2	43.6	active
27	GLRA2	1	3	49.7	active
28	SUPT3H	1	1	57.1	active
29	SUPT3H	1	2	48	active
30	SUPT3H	1	3	60.8	active
31	UBE2B	1	1	66	active
32	UBE2B	1	1	61.9	active
33	UBE2B	1	2	78.1	active
34	UBE2B	1	2	51.7	active
35	UBE2B	1	3	83.3	inactive
36	UBE2B	1	3	65.1	active
37	SP1	1	1	45.8	active
38	SP1	1	2	47	active
39	SP1	1	3	48.4	active
40	MAP3K12	1	1	71.5	active
41	MAP3K12	1	2	65.4	active
42	MAP3K12	1	3	68.3	active
43	PTAR1	1	1	42.3	active
44	PTAR1	1	2	50.3	active
45	PTAR1	1	3	46.6	active
46	YJU2B	1	1	85.6	inactive
47	YJU2B	1	2	74.1	active
48	YJU2B	1	3	86.7	inactive

An excerpt taken from the entries so far, as a working copy:
no.	Gene	reagent no.	technical replicate	viability, normalised (%)	Call
10	DDX42	1	1	57.8	active
11	DDX42	1	2	68.5	active
12	DDX42	1	3	63.9	active
13	ADCK1	1	1	116	inactive
14	ADCK1	1	2	101	inactive
15	ADCK1	1	3	89.1	inactive
16	GCH1	1	1	72	active
17	GCH1	1	2	74.5	active
18	GCH1	1	3	60.9	active
19	ALPK3	1	1	78.1	active
20	ALPK3	1	2	77	active

The list goes on:
no.	Gene	reagent no.	technical replicate	viability, normalised (%)	Call
49	QPCT	1	1	79.7	active
50	QPCT	1	2	96.9	inactive
51	QPCT	1	3	77.6	active
52	TAOK3	1	1	105	inactive
53	TAOK3	1	2	84.2	inactive
54	TAOK3	1	3	61.2	active
55	DDX49	1	1	62.2	active
56	DDX49	1	2	69.4	active
57	DDX49	1	3	50.4	active
58	SUPT5H	1	1	41.8	active
59	SUPT5H	1	2	46.5	active
60	SUPT5H	1	3	43.3	active
61	CDK12	1	1	53.4	active
62	CDK12	1	1	57.5	active
63	CDK12	1	2	46.2	active
64	CDK12	1	2	66.9	active
65	CDK12	1	3	57.8	active
66	CDK12	1	3	69.5	active
67	CDK12	2	1	89.8	inactive
68	CDK12	2	2	84.7	inactive
69	CDK12	2	3	70.8	active
70	RPA4	1	1	55.2	active
71	RPA4	1	2	68.7	active
72	RPA4	1	3	62.4	active
73	ACVR2A	1	1	72.7	active
74	ACVR2A	1	2	61.4	active
75	ACVR2A	1	3	53.9	active
